Assay [1] addresses T1, Halo-TNIP2 stably expressed under the control of the CMVd2 promoter (human) (UniProt Q8NFZ5).
T1 sequence: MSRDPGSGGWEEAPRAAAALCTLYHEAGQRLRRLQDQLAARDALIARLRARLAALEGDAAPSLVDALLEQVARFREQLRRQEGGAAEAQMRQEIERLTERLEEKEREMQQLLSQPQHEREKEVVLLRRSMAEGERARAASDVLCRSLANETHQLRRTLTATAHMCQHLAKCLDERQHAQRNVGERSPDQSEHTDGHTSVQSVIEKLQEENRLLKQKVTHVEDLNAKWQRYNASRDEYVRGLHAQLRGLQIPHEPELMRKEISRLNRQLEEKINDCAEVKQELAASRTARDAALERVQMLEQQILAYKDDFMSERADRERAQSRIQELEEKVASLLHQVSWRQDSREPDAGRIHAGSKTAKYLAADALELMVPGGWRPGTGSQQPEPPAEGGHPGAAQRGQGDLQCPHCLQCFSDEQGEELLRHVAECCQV
The experiment in a line: affinity purification with mass spectrometry; Halo-TNIP2 stably expressed in Flp-In-293 cells under the CMVd2 promoter at close to endogenous levels; Magne HaloTag beads, TEV elution, MudPIT; control: HEK293T cells.

Protein sequences, listed by entry. Tags and fused reporters are not part of them.
UniProt P05412: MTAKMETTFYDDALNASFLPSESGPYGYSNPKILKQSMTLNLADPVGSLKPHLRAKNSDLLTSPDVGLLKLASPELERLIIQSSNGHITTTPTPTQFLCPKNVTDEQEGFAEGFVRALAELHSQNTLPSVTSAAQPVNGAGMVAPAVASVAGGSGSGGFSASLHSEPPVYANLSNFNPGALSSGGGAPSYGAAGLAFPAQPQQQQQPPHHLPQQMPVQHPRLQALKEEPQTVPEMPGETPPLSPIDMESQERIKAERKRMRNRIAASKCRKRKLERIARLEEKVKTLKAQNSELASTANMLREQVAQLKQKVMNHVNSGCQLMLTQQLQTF
UniProt Q12923: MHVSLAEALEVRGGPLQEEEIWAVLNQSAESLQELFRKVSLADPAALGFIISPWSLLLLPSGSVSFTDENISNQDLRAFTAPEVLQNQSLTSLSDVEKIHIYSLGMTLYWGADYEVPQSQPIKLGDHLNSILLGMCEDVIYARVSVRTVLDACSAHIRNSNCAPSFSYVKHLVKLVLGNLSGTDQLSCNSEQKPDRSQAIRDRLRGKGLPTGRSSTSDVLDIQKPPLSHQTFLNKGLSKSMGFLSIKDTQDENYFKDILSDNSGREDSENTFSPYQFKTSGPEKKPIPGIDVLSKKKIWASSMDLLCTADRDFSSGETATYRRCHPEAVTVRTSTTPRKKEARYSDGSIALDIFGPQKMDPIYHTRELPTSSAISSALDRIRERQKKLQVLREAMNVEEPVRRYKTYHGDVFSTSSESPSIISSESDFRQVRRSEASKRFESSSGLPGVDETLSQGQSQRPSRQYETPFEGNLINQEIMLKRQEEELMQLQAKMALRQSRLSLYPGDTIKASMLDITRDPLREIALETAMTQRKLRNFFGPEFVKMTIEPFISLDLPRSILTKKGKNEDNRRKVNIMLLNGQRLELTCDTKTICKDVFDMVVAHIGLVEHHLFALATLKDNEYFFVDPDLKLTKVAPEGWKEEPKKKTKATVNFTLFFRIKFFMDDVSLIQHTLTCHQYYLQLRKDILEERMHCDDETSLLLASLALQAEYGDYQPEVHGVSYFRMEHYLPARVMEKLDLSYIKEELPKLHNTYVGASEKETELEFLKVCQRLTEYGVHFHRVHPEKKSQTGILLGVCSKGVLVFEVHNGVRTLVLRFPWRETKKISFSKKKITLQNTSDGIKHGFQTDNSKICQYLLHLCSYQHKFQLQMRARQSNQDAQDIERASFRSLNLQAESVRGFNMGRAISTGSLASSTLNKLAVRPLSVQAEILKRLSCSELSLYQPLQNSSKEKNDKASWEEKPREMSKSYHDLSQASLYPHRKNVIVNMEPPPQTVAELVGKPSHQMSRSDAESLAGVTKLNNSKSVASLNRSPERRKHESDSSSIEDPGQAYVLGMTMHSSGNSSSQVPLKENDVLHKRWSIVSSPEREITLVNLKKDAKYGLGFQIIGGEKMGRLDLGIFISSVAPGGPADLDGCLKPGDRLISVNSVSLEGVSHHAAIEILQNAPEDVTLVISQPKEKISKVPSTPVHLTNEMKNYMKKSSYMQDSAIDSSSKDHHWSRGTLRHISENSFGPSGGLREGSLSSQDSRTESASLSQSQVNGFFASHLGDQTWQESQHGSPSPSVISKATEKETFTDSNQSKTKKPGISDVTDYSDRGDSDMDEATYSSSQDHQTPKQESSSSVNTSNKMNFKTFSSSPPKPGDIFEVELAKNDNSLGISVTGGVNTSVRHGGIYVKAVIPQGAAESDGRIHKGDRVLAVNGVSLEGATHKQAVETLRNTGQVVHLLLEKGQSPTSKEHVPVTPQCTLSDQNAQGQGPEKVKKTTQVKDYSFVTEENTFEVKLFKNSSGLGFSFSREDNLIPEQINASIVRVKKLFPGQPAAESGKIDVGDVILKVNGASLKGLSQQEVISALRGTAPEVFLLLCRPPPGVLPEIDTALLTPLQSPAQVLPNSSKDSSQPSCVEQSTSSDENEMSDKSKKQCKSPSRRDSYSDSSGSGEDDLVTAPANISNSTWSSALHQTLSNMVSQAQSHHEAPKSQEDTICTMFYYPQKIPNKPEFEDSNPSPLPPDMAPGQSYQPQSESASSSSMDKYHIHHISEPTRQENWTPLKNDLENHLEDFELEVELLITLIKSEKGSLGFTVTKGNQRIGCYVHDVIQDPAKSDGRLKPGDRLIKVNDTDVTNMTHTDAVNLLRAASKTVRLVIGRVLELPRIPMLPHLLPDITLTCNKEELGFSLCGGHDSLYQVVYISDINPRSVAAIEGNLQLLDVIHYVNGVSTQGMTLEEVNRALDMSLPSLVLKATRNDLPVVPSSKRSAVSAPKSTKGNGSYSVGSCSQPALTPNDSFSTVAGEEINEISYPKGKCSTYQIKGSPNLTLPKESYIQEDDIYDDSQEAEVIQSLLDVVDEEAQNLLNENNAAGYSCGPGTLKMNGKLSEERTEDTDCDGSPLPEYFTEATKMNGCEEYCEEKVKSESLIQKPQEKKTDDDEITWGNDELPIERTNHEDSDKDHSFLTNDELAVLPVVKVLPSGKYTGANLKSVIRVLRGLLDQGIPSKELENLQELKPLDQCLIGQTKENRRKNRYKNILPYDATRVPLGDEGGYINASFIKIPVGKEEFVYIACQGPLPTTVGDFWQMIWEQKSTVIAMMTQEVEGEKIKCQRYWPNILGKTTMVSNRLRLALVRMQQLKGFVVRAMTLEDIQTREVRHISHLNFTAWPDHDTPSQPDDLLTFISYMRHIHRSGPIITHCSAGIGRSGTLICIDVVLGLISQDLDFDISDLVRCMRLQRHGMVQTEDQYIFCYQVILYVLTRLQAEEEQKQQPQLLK
UniProt P19838: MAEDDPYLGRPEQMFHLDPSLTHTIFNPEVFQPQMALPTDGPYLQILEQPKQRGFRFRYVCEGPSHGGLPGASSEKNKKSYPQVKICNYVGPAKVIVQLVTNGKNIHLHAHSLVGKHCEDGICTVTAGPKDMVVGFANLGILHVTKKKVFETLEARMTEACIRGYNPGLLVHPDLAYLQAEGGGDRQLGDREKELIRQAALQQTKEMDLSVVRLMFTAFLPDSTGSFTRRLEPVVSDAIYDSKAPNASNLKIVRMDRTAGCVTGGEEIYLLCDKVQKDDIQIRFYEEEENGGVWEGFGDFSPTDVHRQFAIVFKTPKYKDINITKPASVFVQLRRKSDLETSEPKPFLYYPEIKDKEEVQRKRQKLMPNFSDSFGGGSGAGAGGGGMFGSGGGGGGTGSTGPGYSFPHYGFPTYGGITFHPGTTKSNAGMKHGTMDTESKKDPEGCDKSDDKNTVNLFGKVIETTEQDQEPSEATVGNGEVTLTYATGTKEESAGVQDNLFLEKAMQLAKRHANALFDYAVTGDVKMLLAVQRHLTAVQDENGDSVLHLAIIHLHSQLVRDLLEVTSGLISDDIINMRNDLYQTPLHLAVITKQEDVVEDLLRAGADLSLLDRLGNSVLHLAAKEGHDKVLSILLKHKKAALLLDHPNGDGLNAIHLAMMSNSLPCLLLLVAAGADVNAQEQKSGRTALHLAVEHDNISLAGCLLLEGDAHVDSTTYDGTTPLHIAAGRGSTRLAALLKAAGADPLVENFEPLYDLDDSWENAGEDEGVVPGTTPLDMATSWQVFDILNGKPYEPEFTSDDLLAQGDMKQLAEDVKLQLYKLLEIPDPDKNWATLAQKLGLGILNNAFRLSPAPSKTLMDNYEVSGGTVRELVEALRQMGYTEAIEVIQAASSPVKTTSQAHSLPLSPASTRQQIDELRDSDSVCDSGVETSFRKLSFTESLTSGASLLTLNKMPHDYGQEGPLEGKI
UniProt Q07157: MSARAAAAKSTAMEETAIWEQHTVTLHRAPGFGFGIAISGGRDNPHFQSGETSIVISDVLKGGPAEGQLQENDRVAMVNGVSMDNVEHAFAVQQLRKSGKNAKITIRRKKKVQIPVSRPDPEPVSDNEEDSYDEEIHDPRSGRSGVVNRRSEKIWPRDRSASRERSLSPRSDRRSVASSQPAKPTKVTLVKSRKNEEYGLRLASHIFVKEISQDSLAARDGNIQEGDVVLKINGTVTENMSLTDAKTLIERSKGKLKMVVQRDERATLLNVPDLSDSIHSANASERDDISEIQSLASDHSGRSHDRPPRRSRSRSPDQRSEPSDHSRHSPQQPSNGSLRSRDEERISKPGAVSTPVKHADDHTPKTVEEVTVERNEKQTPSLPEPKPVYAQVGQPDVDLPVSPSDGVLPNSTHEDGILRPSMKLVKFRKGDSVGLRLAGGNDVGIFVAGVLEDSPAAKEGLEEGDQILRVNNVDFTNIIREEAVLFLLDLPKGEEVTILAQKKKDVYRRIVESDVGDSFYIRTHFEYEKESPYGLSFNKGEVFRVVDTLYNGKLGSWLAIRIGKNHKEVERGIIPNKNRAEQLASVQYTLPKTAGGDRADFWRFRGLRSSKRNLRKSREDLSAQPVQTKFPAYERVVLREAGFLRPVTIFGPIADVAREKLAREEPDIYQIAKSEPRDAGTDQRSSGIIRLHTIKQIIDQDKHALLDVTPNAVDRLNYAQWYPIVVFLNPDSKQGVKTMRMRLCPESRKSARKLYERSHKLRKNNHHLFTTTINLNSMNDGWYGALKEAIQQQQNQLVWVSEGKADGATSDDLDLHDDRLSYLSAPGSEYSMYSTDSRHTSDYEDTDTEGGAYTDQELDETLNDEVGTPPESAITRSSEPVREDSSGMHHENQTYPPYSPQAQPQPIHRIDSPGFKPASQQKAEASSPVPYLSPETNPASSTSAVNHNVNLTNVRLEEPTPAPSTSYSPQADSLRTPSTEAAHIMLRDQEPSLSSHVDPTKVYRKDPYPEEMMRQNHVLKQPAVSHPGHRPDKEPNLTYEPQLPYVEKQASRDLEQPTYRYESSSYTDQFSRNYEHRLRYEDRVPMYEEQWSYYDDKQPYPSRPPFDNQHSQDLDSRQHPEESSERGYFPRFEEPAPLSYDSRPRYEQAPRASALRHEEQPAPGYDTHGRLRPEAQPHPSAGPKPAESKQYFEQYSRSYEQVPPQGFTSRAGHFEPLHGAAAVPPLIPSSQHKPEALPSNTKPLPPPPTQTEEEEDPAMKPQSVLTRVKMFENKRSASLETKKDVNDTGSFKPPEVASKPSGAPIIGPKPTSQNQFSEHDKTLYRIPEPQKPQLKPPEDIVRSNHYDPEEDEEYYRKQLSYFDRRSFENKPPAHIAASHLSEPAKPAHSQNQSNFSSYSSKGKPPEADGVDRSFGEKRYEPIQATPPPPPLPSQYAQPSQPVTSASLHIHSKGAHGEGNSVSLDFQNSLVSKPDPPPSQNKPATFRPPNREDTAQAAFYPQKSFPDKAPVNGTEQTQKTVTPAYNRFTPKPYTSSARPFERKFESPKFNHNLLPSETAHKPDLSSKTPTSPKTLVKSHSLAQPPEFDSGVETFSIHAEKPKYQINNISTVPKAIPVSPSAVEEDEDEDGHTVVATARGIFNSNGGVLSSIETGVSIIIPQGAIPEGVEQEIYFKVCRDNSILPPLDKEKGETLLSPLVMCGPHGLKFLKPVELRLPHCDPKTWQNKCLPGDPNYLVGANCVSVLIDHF

The target of assay [2] is T2, Flexi-cloned Halo-TNIP2 (with the C-terminal valine cloning scar), transiently expressed from the CMV promoter (human) (UniProt Q8NFZ5).
T2 sequence: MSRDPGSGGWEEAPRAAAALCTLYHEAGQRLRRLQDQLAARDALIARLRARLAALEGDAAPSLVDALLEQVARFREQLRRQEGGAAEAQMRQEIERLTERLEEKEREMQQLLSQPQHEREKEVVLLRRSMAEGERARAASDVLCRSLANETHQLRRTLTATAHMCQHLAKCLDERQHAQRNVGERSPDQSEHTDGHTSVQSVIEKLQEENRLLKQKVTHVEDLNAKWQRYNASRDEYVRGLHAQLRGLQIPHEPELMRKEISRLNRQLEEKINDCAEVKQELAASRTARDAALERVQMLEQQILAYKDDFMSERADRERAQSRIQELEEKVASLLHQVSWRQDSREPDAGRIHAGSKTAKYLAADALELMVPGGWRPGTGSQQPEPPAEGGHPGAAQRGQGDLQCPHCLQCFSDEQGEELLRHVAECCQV
The experiment in a line: affinity purification with mass spectrometry; Halo-tagged bait transiently transfected in HEK293T; whole cell extract on Magne HaloTag magnetic beads 1 h at 4°, washed in Tris pH 7.4, 137 mM NaCl, 0.05% Nonidet P40, eluted with AcTEV protease; MudPIT; control: Halo tag alone.

In assay [3] the target is T3, Halo-TNIP2 253-429 (with the cloning scar valine) (human) (UniProt Q8NFZ5).
T3 sequence: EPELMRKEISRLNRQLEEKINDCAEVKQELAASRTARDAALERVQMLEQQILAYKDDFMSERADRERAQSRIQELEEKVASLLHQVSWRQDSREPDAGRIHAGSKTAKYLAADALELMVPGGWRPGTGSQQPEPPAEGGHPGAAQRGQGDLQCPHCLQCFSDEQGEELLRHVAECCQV
Described as above.

Assay [4] has as its target T4, Halo-TNIP2 without the C-terminal valine (human) (UniProt Q8NFZ5).
T4 sequence: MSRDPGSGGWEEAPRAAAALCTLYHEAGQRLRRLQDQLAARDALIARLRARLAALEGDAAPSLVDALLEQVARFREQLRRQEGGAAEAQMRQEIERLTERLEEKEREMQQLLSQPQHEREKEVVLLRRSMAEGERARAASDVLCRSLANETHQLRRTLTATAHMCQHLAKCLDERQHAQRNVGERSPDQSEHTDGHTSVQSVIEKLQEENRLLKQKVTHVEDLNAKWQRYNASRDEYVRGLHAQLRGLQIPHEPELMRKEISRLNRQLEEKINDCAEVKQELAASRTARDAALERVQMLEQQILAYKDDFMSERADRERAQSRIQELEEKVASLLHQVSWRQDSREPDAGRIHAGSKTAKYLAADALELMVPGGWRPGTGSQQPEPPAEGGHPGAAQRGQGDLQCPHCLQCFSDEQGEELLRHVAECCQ
The assay is described as above.

Assay [5] deals with T5, TNIP2-Halo (full length TNIP2 with the Halo tag at the C-terminus) (human) (UniProt Q8NFZ5).
T5 sequence: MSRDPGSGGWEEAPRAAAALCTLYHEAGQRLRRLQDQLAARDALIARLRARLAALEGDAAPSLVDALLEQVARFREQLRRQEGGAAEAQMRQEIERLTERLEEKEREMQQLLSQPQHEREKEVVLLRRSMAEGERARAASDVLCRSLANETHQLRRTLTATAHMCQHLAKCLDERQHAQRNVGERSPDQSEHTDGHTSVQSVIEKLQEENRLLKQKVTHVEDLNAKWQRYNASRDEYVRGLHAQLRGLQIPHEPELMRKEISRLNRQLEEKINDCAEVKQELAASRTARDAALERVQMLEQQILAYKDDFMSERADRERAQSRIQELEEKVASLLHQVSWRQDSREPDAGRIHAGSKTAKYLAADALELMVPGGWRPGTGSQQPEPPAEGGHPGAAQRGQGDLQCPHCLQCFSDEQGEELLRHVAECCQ
Described as above.

For assay [6], the target named is Halo-JUN lacking the C-terminal valine cloning scar (human) (UniProt P05412). The description is as above.
A further assay has as its target Halo-PTPN13 (UniProt Q12923). The description is as above.
Assay [7] addresses T6, Halo-TNIP2 253-429 no valine (human) (UniProt Q8NFZ5).
T6 sequence: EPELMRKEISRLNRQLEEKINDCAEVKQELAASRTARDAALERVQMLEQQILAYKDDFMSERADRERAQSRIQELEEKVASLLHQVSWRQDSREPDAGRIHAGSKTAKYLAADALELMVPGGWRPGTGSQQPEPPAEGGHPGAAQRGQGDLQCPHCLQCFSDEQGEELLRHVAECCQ
Described as above.

The target in assay [8] is Halo-JUN lacking the C-terminal valine cloning scar (human) (UniProt P05412). The assay is described as above. This is another data set of the same source.

Like-named read-outs stand apart in the source and are kept apart here. Results are given in words; binding and its absence hold for the method and conditions named. Binding seen in cells or lysates may run through a third protein. Here binding means that the protein was enriched with, or labelled near, the bait; the list need not be complete. For some of these results: No binding means not detected with the bait. For some of these results: Tags and fused reporters may be left off the sequences shown.

Take “NFKB1, endogenous (from UniProt P19838 1-968)”: the binding result in [1] and in assay [2] was “binds” each time.
As for “PTPN13, endogenous (from UniProt Q12923 1-2485)”, the binding result in assay [1] is listed as “binds”; in assay [2], “binds”; in [3], “binds”; in [4], “no binding”; in [5] it was “no binding”.
For “TJP2, endogenous (from UniProt Q9UDY2 1-1190)”, the binding entry in assay [6] was “no binding”.
The same measure, in the same setting: the value for “tight junction protein TJP1, endogenous (two isoforms) (from UniProt Q07157 1-1748)” was “no binding”.

B1: STXBP4, endogenous (protein, UniProt Q6ZWJ1 1-553)
chain: MNKNTSTVVSPSLLEKDPAFQMITIAKETGLGLKVLGGINRNEGPLVYIQEIIPGGDCYKDGRLKPGDQLVSVNKESMIGVSFEEAKSIITGAKLRLESAWEIAFIRQKSDNIQPENLSCTSLIEASGEYGPQASTLSLFSSPPEILIPKTSSTPKTNNDILSSCEIKTGYNKTVQIPITSENSTVGLSNTDVASAWTENYGLQEKISLNPSVRFKAEKLEMALNYLGIQPTKEQHQALRQQVQADSKGTVSFGDFVQVARNLFCLQLDEVNVGAHEISNILDSQLLPCDSSEADEMERLKCERDDALKEVNTLKEKLLESDKQRKQLTEELQNVKQEAKAVVEETRALRSRIHLAEAAQRQAHGMEMDYEEVIRLLEAKITELKAQLADYSDQNKESVQDLKKRIMVLDCQLRKSEMARKTFEASTEKLLHFVEAIQEVFSDNSTPLSNLSERRAVLASQTSLTPLGRNGRSIPATLALESKELVKSVRALLDMDCLPYGWEEAYTADGIKYFINHVTQTTSWIHPVMSVLNLSRSEENEEDCSRELPNQKS
On to B1, for which the results for the binding result (with Halo-PTPN13; in assay [7]) were “binds” and “no binding”, respectively.

B2: MPP7, endogenous (protein, UniProt Q5T2T1 1-576)
chain: MPALSTGSGSDTGLYELLAALPAQLQPHVDSQEDLTFLWDMFGEKSLHSLVKIHEKLHYYEKQSPVPILHGAAALADDLAEELQNKPLNSEIRELLKLLSKPNVKALLSVHDTVAQKNYDPVLPPMPEDIDDEEDSVKIIRLVKNREPLGATIKKDEQTGAIIVARIMRGGAADRSGLIHVGDELREVNGIPVEDKRPEEIIQILAQSQGAITFKIIPGSKEETPSKEGKMFIKALFDYNPNEDKAIPCKEAGLSFKKGDILQIMSQDDATWWQAKHEADANPRAGLIPSKHFQERRLALRRPEILVQPLKVSNRKSSGFRKSFRLSRKDKKTNKSMYECKKSDQYDTADVPTYEEVTPYRRQTNEKYRLVVLVGPVGVGLNELKRKLLISDTQHYGVTVPHTTRARRSQESDGVEYIFISKHLFETDVQNNKFIEYGEYKNNYYGTSIDSVRSVLAKNKVCLLDVQPHTVKHLRTLEFKPYVIFIKPPSIERLRETRKNAKIISSRDDQGAAKPFTEEDFQEMIKSAQIMESQYGHLFDKIIINDDLTVAFNELKTTFDKLETETHWVPVSWLHS
Regarding B2, the binding result in assay [8] is reported as “no binding”.

B3: LIN7C, endogenous (protein, UniProt Q9NUP9 1-197)
chain: MAALGEPVRLERDICRAIELLEKLQRSGEVPPQKLQALQRVLQSEFCNAVREVYEHVYETVDISSSPEVRANATAKATVAAFAASEGHSHPRVVELPKTEEGLGFNIMGGKEQNSPIYISRIIPGGIADRHGGLKRGDQLLSVNGVSVEGEHHEKAVELLKAAQGKVKLVVRYTPKVLEEMESRFEKMRSAKRRQQT
As for B3, the binding entry in [8] is “no binding”.

The values above are taken from article PMC4336944.
